SMILES strings stand for the structures.

For this experiment, the system named is Malassezia furfur. Nature of the experiment: Zone of inhibition, disc diffusion method. In kind it is cell-based. To be noted: 48 h. On the procedure: The antimicrobial efficacy was determined by measuring zone of inhibition using disc diffusion method against E. Coli, Malassezia furfur, Pseudomonas, Aspergillus niger, Staphylococcus and Candida. […] The culture plates were incubated at 37° C. for 48 hrs and anti-microbial activity was evaluated by observing an area of no growth around the disc. An area of no growth around the swatch is known as a zone of inhibition.

Take `CCCCCCCCCCCCCCCC[n+]1ccccc1` [QAC, Cetyl pyridinium chloride]: the zone of inhibition at 0.5 % strength came out at 16 mm, the zone of inhibition at 1 % strength was found to be 20 mm, the zone of inhibition at 2 % strength was 30 mm and the zone of inhibition at […] strength worked out at 8 mm.

The record behind these values is patent publication US20190350200A1, “SYNERGISTIC ANTIMICROBIAL COMPOSITIONS” (JUBILANT LIFE SCIENCES LIMITED, priority 2016, published 2019).
